This is an account of results in publication PMC3510032.

No constants are given. Whether binding was seen depends on the method and setting. In cells and extracts the contact can be indirect.

The assay deals with T1, Shep (endogenous, embryo nuclear extract) (Drosophila (endogenous in embryos)) (UniProt Q8MSV2).
T1 sequence: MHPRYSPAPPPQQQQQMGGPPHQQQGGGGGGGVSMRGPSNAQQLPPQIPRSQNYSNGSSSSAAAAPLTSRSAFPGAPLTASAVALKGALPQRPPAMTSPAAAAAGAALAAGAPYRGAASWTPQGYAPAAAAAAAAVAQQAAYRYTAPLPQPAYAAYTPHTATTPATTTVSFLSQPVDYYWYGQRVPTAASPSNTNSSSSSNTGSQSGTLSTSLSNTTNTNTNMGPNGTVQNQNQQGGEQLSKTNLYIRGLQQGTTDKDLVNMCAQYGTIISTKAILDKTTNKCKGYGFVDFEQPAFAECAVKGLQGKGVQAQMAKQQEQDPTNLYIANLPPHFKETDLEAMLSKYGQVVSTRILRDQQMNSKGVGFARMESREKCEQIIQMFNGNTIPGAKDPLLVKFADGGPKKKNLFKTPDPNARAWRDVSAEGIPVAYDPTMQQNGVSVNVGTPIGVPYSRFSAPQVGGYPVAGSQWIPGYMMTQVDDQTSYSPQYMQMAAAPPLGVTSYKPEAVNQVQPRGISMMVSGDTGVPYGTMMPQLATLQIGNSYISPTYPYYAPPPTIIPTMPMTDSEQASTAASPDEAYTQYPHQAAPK
Kind of assay: co-IP; embryo nuclear extracts in HBSMT, α-Shep or pre-immune serum pre-conjugated to protein A sepharose, 1 h at 4°C; Western blotting. A general note: Immunoblotting shows a protein as a band on a membrane.

B1: Pc (protein, UniProt P26017 1-390)
chain: MTGRGKGSKGKLGRDNATDDPVDLVYAAEKIIQKRVKKGVVEYRVKWKGWNQRYNTWEPEVNILDRRLIDIYEQTNKSSGTPSKRGIKKKEKEPDPEPESEEDEYTFTENDVDTHQATTSSATHDKESKKEKKHHHHHHHHHHIKSERNSGRRSESPLTHHHHHHHHESKRQRIDHSSSSNSSFTHNSFVPEPDSNSSSSEDQPLIGTKRKAEVLKESGKIGVTIKTSPDGPTIKPQPTQQVTPSQQQPFQDQQQAEKIASEAATQLKSEQQATPLATEAINTTPAESGAEEEEVANEEGNQQAPQVPSENNNIPKPCNNLAINQKQPLTPLSPRALPPRFWLPAKCNISNRVVITDVTVNLETVTIRECKTERGFFRERDMKGDSSPVA
B1: the binding entry is “no binding”.
